Measurements published in article PMC6234864.

Tests used:
[1] = target: Pas3-2×FLAG (Cryptococcus neoformans); assay: affinity purification with mass spectrometry; Co-IP/MS from protein extract of the Pas3-2×FLAG strain with FLAG trap (Sigma); strain with the 2×FLAG tag alone and untagged WT as negative controls
[2] = target: Pas3-mCherry (Cryptococcus neoformans); assay: affinity purification with mass spectrometry; Co-IP/MS from protein extract of the Pas3-mCherry strain with RFP trap (ChromoTek); WT XL280 without tag as negative control

B1: Bre1 (protein, UniProt P0CQ62 1-820)
chain: MNADLKRVRENTLDDSPSPSAKRRLNSNASSPIQPSDDEGMAEWMKIVEVKRKEAIYRQMLEYRRISEHETKRANDLEAQRRVLEASFHAVELCWTQIVAAVRDLAGAENLQLKEEEVLEPLLDPSTPVPELEKALRSRLPTTRQLVTRFVDLVAHNATRPASEADLQARCLKLEAEASALRSNSKLLESEISALKGSRDEAQRDLQRIRKALDRERMEHGKAQEEWKEERTRGGQATPNLRANGSGHSTPNGKVEADKKFYSGAGPSMAGVLQDTSELEQLAASRLKQLEQLRFEQTQLQQEVDRLKILANHPSEAALRESPFFQVYLHQLSTSINRAESLQTRFTATESKLDQLRDSNGEFREAVLAEARGQTETLRAQMAKKDSDIARLRGQRDELNSEIMERRAKEVEKCKYTEQIENLANSRQERISFLTSEVRRLKGKLAAAHSSDGYLSFLKESGIDGDYVKDLEAKVVTSQDQINALTSQLERVSSDTAAAKSETEVRTELESAKRLLARYERILGPNPEAAEDVRYLSQQLEKKEKERASLEMKLEEAEAATNALYSEVEGLSKLWEALDQTVKSKVLELRDGEQKITRLATEKAKADNKYFAAMRAKEAVDMEAKAAQRSVEKQLRLLERAQEVETSLRSQITANEKGLTALKNNALDLQNQLATVVAEKTQLELRLQQSQNALVEAQQIMHQRVAEAIAEKEARAKLQDEADGQMKIIKKLKERQDAVAAASQTGMSDHEWAITQERDKLLKLLKCSCCEQNFKQQVIVKCMHTFCKQCLEQRIASRQRKCPACGLAFAKEDIQTLYWQ
In the case of B1, the binding [1] is reported as “binds” and the binding [2] is reported as “binds”.

No constants are given. Whether binding was seen depends on the method and setting. In cells and extracts the contact can be indirect. Here binding means that the protein was enriched with, or labelled near, the bait; the list need not be complete.
